PubChem BioAssay AID1259275 | Sanger Institute | 2017

Purpose: 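Kinase and colorectal cancer genes needed for cancer cell survival, with or without drugs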 (primary screen)
Cell system: COLO320HSR human colorectal cancer cells
Reagents: siRNA pool against human genes
Treatment: anchor drug added one day after transfection: BYL719 at 1 µM, cetuximab at 5 µg/ml or trametinib at 10 nM; DMSO as vehicle arm
Detection: 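Viability averaged over replicates as a fraction of the non-targeting pool, a robust z-score for knock-down alone, and synergy scores with BYL719 (1 µM), cetuximab (5 µg/ml) or trametinib (10 nM)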
Direction: robust z-score, siRNA alone: higher = more viable cells; strongly negative means essential; viability, knock-down alone (DMSO): higher = more viable cells; synergy score with BYL719 and synergy score with cetuximab: higher = stronger combined killing with drug
Active means: 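Essential means the knock-down by itself gives a robust z-score lower than -3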
Calls: active = essential (siRNA alone); inactive = no change (siRNA alone)
The deposit covers 794 reagents; below is a random part of them. Over the whole deposit, 13 (1.6%) got an active call. 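Calls mark knock-downs lethal by themselves, not drug synergy; drugs went in a day after transfection, with DMSO as vehicle.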 No viability above 1 is reported: the scale is capped. Further read-outs or replicates are left out here. No sequences are given here. Not given: the amount of reagent, the time to read-out.

| target | robust z-score, siRNA alone | viability, knock-down alone (DMSO) (fraction of control) | synergy score with BYL719 | synergy score with cetuximab | Outcome |
| --- | --- | --- | --- | --- | --- |
| JAK2 (Janus kinase 2) | 0.279 | 0.96 | -0.183 | -0.103 | inactive |
| WT1 (WT1 transcription factor) | 0.473 | 0.977 | -0.258 | 0.00498 | inactive |
| MAP2K4 (mitogen-activated protein kinase kinase 4) | 0.513 | 0.981 | -0.0331 | -0.0366 | inactive |
| NME7 (NME/NM23 family member 7) | 0.586 | 0.987 | -0.12 | -0.101 | inactive |
| GTF2H1 (general transcription factor IIH subunit 1) | 0.726 | 1 | -0.0364 | -0.0331 | inactive |
| PDK4 (pyruvate dehydrogenase kinase 4) | 0.726 | 1 | -0.164 | -0.0893 | inactive |
| STYK1 (STY kinase 1) | -0.175 | 0.919 | -0.2 | -0.163 | inactive |
| BMX (BMX non-receptor tyrosine kinase) | -1.07 | 0.838 | -0.315 | -0.229 | inactive |
| CSNK1G2 (casein kinase 1 gamma 2) | 0.604 | 0.989 | -0.066 | -0.0994 | inactive |
| CKB (creatine kinase B) | -0.468 | 0.892 | -0.147 | -0.0798 | inactive |
| NRK (Nik related kinase) | 0.726 | 1 | -0.233 | -0.0893 | inactive |
| GCK (glucokinase) | -0.759 | 0.866 | -0.0713 | -0.12 | inactive |
| MAPK4 (mitogen-activated protein kinase 4) | -0.177 | 0.918 | -0.0763 | -0.0744 | inactive |
| PDK1 (pyruvate dehydrogenase kinase 1) | 0.0964 | 0.943 | -0.0668 | -0.141 | inactive |
| CLK4 (CDC like kinase 4) | -1.59 | 0.791 | -0.153 | -0.188 | inactive |
| RBKS (ribokinase) | 0.726 | 1 | -0.284 | -0.0893 | inactive |
| LMTK2 (lemur tail kinase 2) | 0.726 | 1 | 0.0315 | -0.0893 | inactive |
| GNE | 0.726 | 1 | -0.195 | -0.0893 | inactive |
| GUCY2EP (guanylate cyclase 2E, pseudogene) | -0.839 | 0.859 | -0.0191 | -0.133 | inactive |
| NF1 (neurofibromin 1) | 0.699 | 0.998 | -0.125 | 0.0194 | inactive |
| PXK (PX domain containing serine/threonine kinase like) | 0.726 | 1 | -0.151 | -0.0256 | inactive |
| MYH10 (myosin heavy chain 10) | 0.27 | 0.959 | -0.0993 | -0.0261 | inactive |
| CDK14 (cyclin dependent kinase 14) | 0.726 | 1 | -0.159 | -0.0893 | inactive |
| PRPS1L1 (phosphoribosyl pyrophosphate synthetase 1 like 1) | 0.726 | 1 | -0.0414 | -0.0595 | inactive |
| BMPR1B (bone morphogenetic protein receptor type 1B) | 0.726 | 1 | -0.205 | -0.0893 | inactive |
| NUP62 (nucleoporin 62) | -1.14 | 0.831 | -0.0188 | -0.0432 | inactive |
| DGKA (diacylglycerol kinase alpha) | -0.418 | 0.897 | 0.0441 | -0.101 | inactive |
| MAK (male germ cell associated kinase) | 0.726 | 1 | -0.145 | -0.0893 | inactive |
| MAP3K12 (mitogen-activated protein kinase kinase kinase 12) | 0.726 | 1 | -0.169 | -0.0893 | inactive |
| PFKFB2 (6-phosphofructo-2-kinase/fructose-2,6-biphosphatase 2) | -0.309 | 0.907 | 0.0074 | 0.023 | inactive |
| DYRK1A | 0.726 | 1 | -0.0163 | 0.0249 | inactive |
| CSF1R (colony stimulating factor 1 receptor) | -0.979 | 0.846 | 0.0837 | -0.23 | inactive |
| TESK2 (testis associated actin remodelling kinase 2) | 0.726 | 1 | -0.0159 | -0.0893 | inactive |

The list goes on; the last 9 above are carried over.
| target | robust z-score, siRNA alone | viability, knock-down alone (DMSO) (fraction of control) | synergy score with BYL719 | synergy score with cetuximab | Outcome |
| --- | --- | --- | --- | --- | --- |
| BMPR1B (bone morphogenetic protein receptor type 1B) | 0.726 | 1 | -0.205 | -0.0893 | inactive |
| NUP62 (nucleoporin 62) | -1.14 | 0.831 | -0.0188 | -0.0432 | inactive |
| DGKA (diacylglycerol kinase alpha) | -0.418 | 0.897 | 0.0441 | -0.101 | inactive |
| MAK (male germ cell associated kinase) | 0.726 | 1 | -0.145 | -0.0893 | inactive |
| MAP3K12 (mitogen-activated protein kinase kinase kinase 12) | 0.726 | 1 | -0.169 | -0.0893 | inactive |
| PFKFB2 (6-phosphofructo-2-kinase/fructose-2,6-biphosphatase 2) | -0.309 | 0.907 | 0.0074 | 0.023 | inactive |
| DYRK1A | 0.726 | 1 | -0.0163 | 0.0249 | inactive |
| CSF1R (colony stimulating factor 1 receptor) | -0.979 | 0.846 | 0.0837 | -0.23 | inactive |
| TESK2 (testis associated actin remodelling kinase 2) | 0.726 | 1 | -0.0159 | -0.0893 | inactive |
| JAK3 (Janus kinase 3) | 0.726 | 1 | 0.0703 | -0.0893 | inactive |
| PRKAR2A | 0.726 | 1 | -0.0654 | -0.0893 | inactive |
| ROCK1 (Rho associated coiled-coil containing protein kinase 1) | 0.726 | 1 | -0.203 | -0.00296 | inactive |
| RAD21 (RAD21 cohesin complex component) | -1.16 | 0.83 | -0.0861 | -0.0711 | inactive |
| ALPK1 (alpha kinase 1) | 0.196 | 0.952 | -0.0426 | -0.115 | inactive |
| ACVR2B (activin A receptor type 2B) | 0.695 | 0.997 | -0.0642 | -0.0919 | inactive |
| AMHR2 (anti-Mullerian hormone receptor type 2) | 0.395 | 0.97 | -0.0826 | 0.0821 | inactive |
| NME1 (NME/NM23 nucleoside diphosphate kinase 1) | 0.726 | 1 | -0.0556 | -0.0893 | inactive |
| ULK4 (unc-51 like kinase 4) | 0.726 | 1 | -0.151 | 0.0102 | inactive |
| CDK11A (cyclin dependent kinase 11A) | -3.24 | 0.642 | -0.322 | -0.00446 | active |
| TNIK (TRAF2 and NCK interacting kinase) | -0.873 | 0.856 | -0.162 | -0.0859 | inactive |
| CDC42BPB (CDC42 binding protein kinase beta) | -0.361 | 0.902 | -0.309 | -0.0675 | inactive |
| HASPIN (histone H3 associated protein kinase) | 0.461 | 0.976 | -0.0523 | -0.111 | inactive |
| LIMK1 (LIM domain kinase 1) | 0.254 | 0.957 | -0.259 | -0.128 | inactive |
| CDK13 (cyclin dependent kinase 13) | 0.726 | 1 | -0.296 | -0.0893 | inactive |
| COQ8B (coenzyme Q8B) | 0.726 | 1 | 0.0118 | -0.0613 | inactive |
| PAPSS2 (3'-phosphoadenosine 5'-phosphosulfate synthase 2) | -0.235 | 0.913 | -0.276 | -0.168 | inactive |
| GRK3 (G protein-coupled receptor kinase 3) | 0.726 | 1 | -0.101 | -0.0893 | inactive |
| PIK3R2 (phosphoinositide-3-kinase regulatory subunit 2) | 0.726 | 1 | -0.196 | -0.00251 | inactive |
| DLG1 (discs large MAGUK scaffold protein 1) | 0.563 | 0.985 | 0.0453 | 0.0841 | inactive |
| VRK3 (VRK serine/threonine kinase 3) | 0.726 | 1 | -0.249 | -0.0893 | inactive |
| CSNK1A1 (casein kinase 1 alpha 1) | -1.56 | 0.794 | -0.145 | -0.116 | inactive |
| CKMT1B (creatine kinase, mitochondrial 1B) | -0.201 | 0.916 | 0.0449 | -0.166 | inactive |
| PIK3CG | -0.53 | 0.887 | -0.00288 | -0.163 | inactive |
| TEX14 (testis expressed 14, intercellular bridge forming factor) | -0.412 | 0.897 | -0.0717 | -0.16 | inactive |
| ROCK2 (Rho associated coiled-coil containing protein kinase 2) | 0.666 | 0.995 | -0.102 | -0.0725 | inactive |
| AKT1 (AKT serine/threonine kinase 1) | 0.0389 | 0.938 | -0.242 | -0.146 | inactive |
| NPR2 (natriuretic peptide receptor 2) | 0.317 | 0.963 | -0.127 | -0.123 | inactive |
| PRKAA2 (protein kinase AMP-activated catalytic subunit alpha 2) | 0.726 | 1 | -0.0897 | -0.0893 | inactive |
| LIMK2 (LIM domain kinase 2) | 0.726 | 1 | -0.103 | -0.0893 | inactive |
